# Laboratory results from the supplement of paper PMC8728848.
# This is one part of the list.
# B1: Aap lectin (Staphylococcus epidermidis) (protein)
# chain: VNLNYSSPFMSLLSMPADSSSNNTKNTIDIPPTTVKGRDNYDFYGRVDIESNPTDLNATNLTRYNYGQPPGTTTAGAVQFKNQVSFDKDFDFNIRVANNRQSNTTGADGWGFMFSKKDGDDFLKNGGILREKGTPSAAGFRIDTGYYNNDPLDKIQKQAGQGYRGYGTFVKNDSQGNTSKVGSGTPSTDFLNYADNTTNDLDGKFHGQKLNNVNLKYNASNQTFTATYAGKTWTATLSELGLSPTDSYNFLVTSS
# Key:
# Assay in all cases: glycan array binding signal (z-score within array); higher = stronger binding
# Conditions in all cases: glycan notation: IUPAC condensed, linker removed
# [1] = target: Neu5Ac(a2-6)Gal(b1-4)GlcNAc(b1-2)Man(a1-3)[Man(a1-6)]Man(b1-4)GlcNAc(b1-4)GlcNAc
# Summary of the method: (§1)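 The binding signal is a Z-score computed within each array and averaged over linkers. Arrays of the same protein sequence at different concentrations or buffers were also averaged together. Data originate from 3228 arrays in the Consortium for Functional Glycomics database, kept only where the protein sequence was available.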
# [2] = target: Neu5Ac(a2-6)Gal(b1-4)GlcNAc(b1-2)Man(a1-3)[Neu5Ac(a2-3)Gal(b1-4)GlcNAc(b1-2)Man(a1-6)]Man(b1-4)GlcNAc(b1-4)GlcNAc
# Summary of the method: as §1
# [3] = target: Neu5Ac(a2-6)Gal(b1-4)GlcNAc(b1-2)Man(a1-3)[Neu5Ac(a2-6)Gal(b1-4)GlcNAc(b1-2)Man(a1-6)]Man(b1-4)GlcNAc(b1-4)GlcNAc
# Summary of the method: as §1
# [4] = target: Neu5Ac(a2-6)Gal(b1-4)GlcNAc(b1-2)Man(a1-3)[Neu5Ac(a2-6)Gal(b1-4)GlcNAc(b1-2)Man(a1-6)]Man(b1-4)GlcNAc(b1-4)[Fuc(a1-6)]GlcNAc
# Summary of the method: as §1
# [5] = target: Neu5Ac(a2-6)Gal(b1-4)GlcNAc(b1-2)Man(a1-6)Man(b1-4)GlcNAc(b1-4)GlcNAc
# Summary of the method: as §1
# [6] = target: Neu5Ac(a2-6)Gal(b1-4)GlcNAc(b1-2)Man(a1-6)[Gal(b1-4)GlcNAc(b1-2)Man(a1-3)]Man(b1-4)GlcNAc(b1-4)GlcNAc
# Summary of the method: as §1
# [7] = target: Neu5Ac(a2-6)Gal(b1-4)GlcNAc(b1-2)Man(a1-6)[GlcNAc(b1-2)Man(a1-3)]Man(b1-4)GlcNAc(b1-4)GlcNAc
# Summary of the method: as §1
# [8] = target: Neu5Ac(a2-6)Gal(b1-4)GlcNAc(b1-2)Man(a1-6)[Man(a1-3)]Man(b1-4)GlcNAc(b1-4)GlcNAc
# Summary of the method: as §1
# [9] = target: Neu5Ac(a2-6)Gal(b1-4)GlcNAc(b1-2)[Neu5Ac(a2-6)Gal(b1-4)GlcNAc(b1-4)]Man(a1-3)[GlcNAc(b1-4)][Neu5Ac(a2-6)Gal(b1-4)GlcNAc(b1-2)[Neu5Ac(a2-6)Gal(b1-4)GlcNAc(b1-6)]Man(a1-6)]Man(b1-4)GlcNAc(b1-4)GlcNAc
# Summary of the method: as §1
# [10] = target: Neu5Ac(a2-6)Gal(b1-4)GlcNAc(b1-2)[Neu5Ac(a2-6)Gal(b1-4)GlcNAc(b1-4)]Man(a1-3)[GlcNAc(b1-4)][Neu5Ac(a2-6)Gal(b1-4)GlcNAc(b1-4)Man(a1-6)]Man(b1-4)GlcNAc(b1-4)GlcNAc
# Summary of the method: as §1
# [11] = target: Neu5Ac(a2-6)Gal(b1-4)GlcNAc(b1-2)[Neu5Ac(a2-6)Gal(b1-4)GlcNAc(b1-6)]Man(a1-6)[Neu5Ac(a2-6)Gal(b1-4)GlcNAc(b1-2)Man(a1-3)][GlcNAc(b1-4)]Man(b1-4)GlcNAc(b1-4)GlcNAc
# Summary of the method: as §1
# [12] = target: Neu5Ac(a2-6)Gal(b1-4)GlcNAc(b1-3)Gal(b1-3)GlcNAc
# Summary of the method: as §1
# [13] = target: Neu5Ac(a2-6)Gal(b1-4)GlcNAc(b1-3)Gal(b1-4)GlcNAc
# Summary of the method: as §1
# [14] = target: Neu5Ac(a2-6)Gal(b1-4)GlcNAc(b1-3)Gal(b1-4)GlcNAc(b1-2)Man(a1-3)[Neu5Ac(a2-6)Gal(b1-4)GlcNAc(b1-3)Gal(b1-4)GlcNAc(b1-2)Man(a1-6)]GalNAc
# Summary of the method: as §1
# [15] = target: Neu5Ac(a2-6)Gal(b1-4)GlcNAc(b1-3)Gal(b1-4)GlcNAc(b1-3)Gal(b1-4)GlcNAc
# Summary of the method: as §1
# [16] = target: Neu5Ac(a2-6)Gal(b1-4)GlcNAc(b1-3)Gal(b1-4)GlcNAc(b1-3)Gal(b1-4)GlcNAc(b1-2)Man(a1-3)[Neu5Ac(a2-6)Gal(b1-4)GlcNAc(b1-3)Gal(b1-4)GlcNAc(b1-3)Gal(b1-4)GlcNAc(b1-2)Man(a1-6)]GalNAc
# Summary of the method: as §1
# [17] = target: Neu5Ac(a2-6)Gal(b1-4)GlcNAc(b1-3)Gal(b1-4)GlcNAc(b1-3)GalNAc
# Summary of the method: as §1
# [18] = target: Neu5Ac(a2-6)Gal(b1-4)GlcNAc(b1-3)Gal(b1-4)GlcNAc(b1-3)[Neu5Ac(a2-6)Gal(b1-4)GlcNAc(b1-3)Gal(b1-4)GlcNAc(b1-6)]GalNAc
# Summary of the method: as §1
# [19] = target: Neu5Ac(a2-6)Gal(b1-4)GlcNAc(b1-3)Gal(b1-4)GlcNAc(b1-6)[Gal(b1-3)]GalNAc
# Summary of the method: as §1
# [20] = target: Neu5Ac(a2-6)Gal(b1-4)GlcNAc(b1-3)Gal(b1-4)[Fuc(a1-3)]GlcNAc(b1-3)Gal(b1-4)[Fuc(a1-3)]GlcNAc
# Summary of the method: as §1
# [21] = target: Neu5Ac(a2-6)Gal(b1-4)GlcNAc(b1-3)GalNAc
# Summary of the method: as §1
# [22] = target: Neu5Ac(a2-6)Gal(b1-4)GlcNAc(b1-3)[Neu5Ac(a2-6)Gal(b1-4)GlcNAc(b1-6)]GalNAc
# Summary of the method: as §1
# [23] = target: Neu5Ac(a2-6)Gal(b1-4)GlcNAc(b1-6)GalNAc
# Summary of the method: as §1
# [24] = target: Neu5Ac(a2-6)Gal(b1-4)GlcNAc(b1-6)[Gal(b1-3)GlcNAc(b1-3)]Gal(b1-4)Glc
# Summary of the method: as §1
# [25] = target: Neu5Ac(a2-6)Gal(b1-4)GlcNAc(b1-6)[Gal(b1-3)]GalNAc
# Summary of the method: as §1
# [26] = target: Neu5Ac(a2-6)Gal(b1-4)GlcNAc6S
# Summary of the method: as §1
# Neu5Ac(a2-6)GalNAc = target: Neu5Ac(a2-6)GalNAc
# Summary of the method: as §1
# [27] = target: Neu5Ac(a2-6)GalNAc(b1-4)GlcNAc
# Summary of the method: as §1
# [28] = target: Neu5Ac(a2-6)GalNAc(b1-4)GlcNAc6S
# Summary of the method: as §1
# [29] = target: Neu5Ac(a2-6)GlcNAc(b1-4)GlcNAc
# Summary of the method: as §1
# [30] = target: Neu5Ac(a2-6)GlcNAc(b1-4)GlcNAc(b1-4)GlcNAc
# Summary of the method: as §1
binder,measurement,setting,value
B1,glycan array binding signal (z-score),[1],-0.436
same,glycan array binding signal (z-score),[2],1.27
same,glycan array binding signal (z-score),[3],0.597
same,glycan array binding signal (z-score),[4],1.17
same,glycan array binding signal (z-score),[5],-0.806
same,glycan array binding signal (z-score),[6],-0.882
same,glycan array binding signal (z-score),[7],-0.898
same,glycan array binding signal (z-score),[8],-0.456
same,glycan array binding signal (z-score),[9],0.098
same,glycan array binding signal (z-score),[10],-0.886
same,glycan array binding signal (z-score),[11],-0.834
same,glycan array binding signal (z-score),[12],-0.907
same,glycan array binding signal (z-score),[13],-0.424
same,glycan array binding signal (z-score),[14],-0.905
same,glycan array binding signal (z-score),[15],-0.888
same,glycan array binding signal (z-score),[16],-0.161
same,glycan array binding signal (z-score),[17],-0.917
same,glycan array binding signal (z-score),[18],2.93
same,glycan array binding signal (z-score),[19],1.51
same,glycan array binding signal (z-score),[20],-0.333
same,glycan array binding signal (z-score),[21],1.75
same,glycan array binding signal (z-score),[22],-0.528
same,glycan array binding signal (z-score),[23],2.29
same,glycan array binding signal (z-score),[24],1.01
same,glycan array binding signal (z-score),[25],-0.066
same,glycan array binding signal (z-score),[26],-0.883
same,glycan array binding signal (z-score),Neu5Ac(a2-6)GalNAc,-0.816
same,glycan array binding signal (z-score),[27],-0.893
same,glycan array binding signal (z-score),[28],-1.16
same,glycan array binding signal (z-score),[29],-0.546
same,glycan array binding signal (z-score),[30],-0.693

# Reformatted: results already given.
binder | measurement | setting | value
B1 | glycan array binding signal (z-score) | [13] | -0.424
same | glycan array binding signal (z-score) | [14] | -0.905
same | glycan array binding signal (z-score) | [15] | -0.888
same | glycan array binding signal (z-score) | [16] | -0.161
same | glycan array binding signal (z-score) | [17] | -0.917
same | glycan array binding signal (z-score) | [18] | 2.93
same | glycan array binding signal (z-score) | [19] | 1.51
same | glycan array binding signal (z-score) | [20] | -0.333
